Primary screen of a compound library

Amino acid sequences for entries named in this document (tags omitted).
UniProt E9BF75, entry or part of it: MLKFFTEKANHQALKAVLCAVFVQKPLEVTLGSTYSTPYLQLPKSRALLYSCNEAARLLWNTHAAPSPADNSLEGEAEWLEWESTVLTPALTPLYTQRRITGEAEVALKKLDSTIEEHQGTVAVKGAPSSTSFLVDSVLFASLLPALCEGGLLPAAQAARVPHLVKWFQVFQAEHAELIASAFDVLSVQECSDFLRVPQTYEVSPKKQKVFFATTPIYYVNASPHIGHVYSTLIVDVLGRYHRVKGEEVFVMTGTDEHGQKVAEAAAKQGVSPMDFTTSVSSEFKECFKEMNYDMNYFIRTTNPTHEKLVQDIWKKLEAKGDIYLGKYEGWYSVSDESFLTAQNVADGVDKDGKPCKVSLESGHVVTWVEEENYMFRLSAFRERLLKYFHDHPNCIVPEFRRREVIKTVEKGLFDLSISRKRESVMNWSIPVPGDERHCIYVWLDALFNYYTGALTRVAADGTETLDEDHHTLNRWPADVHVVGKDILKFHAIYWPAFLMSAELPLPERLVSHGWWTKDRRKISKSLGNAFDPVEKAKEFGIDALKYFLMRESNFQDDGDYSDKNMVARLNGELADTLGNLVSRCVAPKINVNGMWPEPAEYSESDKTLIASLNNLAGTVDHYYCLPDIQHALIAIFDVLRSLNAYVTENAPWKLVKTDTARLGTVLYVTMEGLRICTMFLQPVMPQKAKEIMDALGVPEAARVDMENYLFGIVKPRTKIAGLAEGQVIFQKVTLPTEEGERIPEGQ

The values are deposited in ChEMBL (CHEMBL3988442, “University of Dundee, Small-Polar-MMV Screening Library” (2021)).

A: 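Primary screen of methionyl-tRNA synthetase; the read-out is not stated. Target: Methionyl-tRNA synthetase (putative), Leishmania donovani (UniProt E9BF75). The test concentration is not given. The values are filed as inhibition. Size under these conditions: about 68,000 compounds, about 24 of them at 50% or above in at least one test.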
B: 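Assay on Mycobacterium tuberculosis, filed only as a heat shock assay from Cornell; the read-out is not stated. The concentration is filed as 10 mM, unlikely as a test dose, so the dose is not known. The record gives no direction; compounds that gave an IC50 in retests scored well above the rest, so higher reads as stronger inhibition. About 69,000 compounds were tested under these conditions; 1.4% (about 930) showed 50% or more at least once.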

Results are percentages, as filed.
How 0% and 100% were set is not recorded. Most values in the screen are low, and negative values occur.
The compounds are a random part of those screened.
A dash means the value is not listed here; it may have been measured.

compound	A	B
O=C(c1ccc(F)c(F)c1)N1CCN2CCCC2C1 (stereo not given)	2.21	-2.753
CC(C)c1nc2n(n1)CC(NCc1nc(-c3ccsc3)no1)CC2 (stereo not given)	12.71	6.188
O=C1CSCN1Cc1nc(-c2ccc(N3CCCCC3)cc2)no1	14.89	-15.16
O=C1CCC(=O)N1CCOc1nc(-c2ccccc2Cl)no1	16.77	-14.57
CN1C(Cn2cccn2)C[C@@H]2CN(Cc3cnn(C)c3)CC[C@@H]21 (stereo not given in full)	0.6623	-
COCC(O)CN(C)C(=O)c1cccc(-c2csc(C)n2)c1 (stereo not given)	5.797	13.72
CC(C)OCc1ccc(CNC(=O)CC(F)(F)F)cc1	11.02	0.9347
CS(=O)(=O)c1nccn1Cc1ccc(F)cc1Cl	9.943	12.83
Cn1cnc2c1CCN(CCS(=O)(=O)c1ccc(Cl)cc1)C2	19.36	2.053
Cn1ccc2c(-c3ccc(NCCO)nn3)ccnc21	-1.229	-38.93
Cn1ncc2c(=O)[nH]c(CN3CCC(Cc4ccccc4)CC3)nc21	5.512	-9.246
CC1(C(=O)N2CCSCC2)CNCCO1 (stereo not given)	9.346	-20.69
Cc1noc(C)c1Cn1cc(I)cc(C)c1=O	11.59	11.24
Cc1nnc([C@H]2CCN(CCCc3ccccc3)C2)o1	1.648	-46.17
CCn1cc(NC(=O)NCc2ccc(CN3CCOCC3)cc2)cn1	10.8	21.62
Cc1nnc([C@@]23CCO[C@@H]2CCN(Cc2nccs2)C3)o1	15.25	-
Fc1cccc(N2CCCC3(CN(Cc4ccccn4)CCO3)C2)c1.O=C(O)C(F)(F)F.O=C(O)C(F)(F)F.O=C(O)C(F)(F)F (stereo not given)	-	6.418
CC(=O)c1cccc(NS(=O)(=O)c2cc(C)c(C(=O)O)s2)c1	9.253	11.68
Cc1ccc(CN(CCCN2CCOCC2)Cc2cnc(C)n2C)o1.O=C(O)CC(O)(CC(=O)O)C(=O)O	-	-5.16
O=C(O)C(F)(F)F.[H][C@@]12CCN(Cc3ccc4c(c3)OCO4)C[C@]1([H])[C@H](C(=O)N(C)C)CCO2	-	3.357
CC(C)N(C)S(=O)(=O)N(C)Cc1cnn(Cc2ccccc2)c1	6.593	-8.877
O=C(NCc1cnc2n1CCN(Cc1nccs1)C2)c1ccno1	21.29	-
COCCC(=O)N1CCc2c(CNc3ncccn3)cncc2C1.Cl	-	-11.71
CCOCCn1c(=O)[nH]c2cc(C(=O)N(C)Cc3nc(C)cs3)ccc21	16.3	3.626
CN(C(=O)C1CCC1)C1CCN(c2ccccc2Cl)C1=O (stereo not given)	16.86	14.75
O=C1CC[C@H]2[C@H](CCN2c2ccccn2)N1CC1CCOCC1	15.22	-
CN(C(=O)COC1CCCC1)C1CCN(CC2CCOC2)CC1 (stereo not given)	9.023	-34.17
Cc1cnn(CCNCC(=O)NC(C)c2ccc3c(c2)OCCO3)c1 (stereo not given)	25.36	-9.206
CCC(O)CN1CCN(C(=O)c2cccc3c2OCC(=O)N3)CC1 (stereo not given)	15.79	-15.28
CC1(C2CCN(CC(N)=O)CC2)CN(Cc2ccccc2)C(=O)CO1 (stereo not given)	14.19	0.3077
O=C(CN1CCN(c2ncnc3c2CCNCC3)CC1)N1CCCCC1	19.37	-7.825
Cc1nc(C(=O)N2C[C@@H]3CN(S(C)(=O)=O)CCO[C@@H]3C2)cs1	8.651	-
CC(C)CC(NC(=O)CN(C)c1cnccn1)c1cccs1 (stereo not given)	11.23	-15.13
CN(Cc1ccco1)C(=O)CN1CCc2ccccc2C1	14.29	16.01
c1ccc(-c2nc(CN3CCCC3Cn3cncn3)co2)cc1 (stereo not given)	14.46	-20.91
CC(NC(=O)N1CCN(c2nccs2)CC1)c1nncn1C (stereo not given)	20.52	-27.17
O=C(NCC1(c2ccc(F)cc2)CCC1)N1CCC2(CCOCC2)C1	3.43	-12.27
CCN1C(=O)C[C@@H]2[C@@H]1CCN2S(=O)(=O)c1ccc(OC)cc1	-2.778	-
CC(C)n1ncc2cc(NC(=O)N3CCC(C(N)=O)C3)cnc21 (stereo not given)	3.352	-19.57
O=C(c1cscn1)N1CCC2(CC1)CCN(S(=O)(=O)c1ccccc1)C2	12.77	25.5
Cc1nn(C)cc1-c1nn2c(C(F)(F)F)nnc2s1	13.44	-0.717
CCOCC1CCN(C(=O)Nc2ccc3c(c2)CCCN3C)C1 (stereo not given)	17.96	22.44
O=C(NC1CCCCC1)c1nnc2ccc(N3CCOCC3)cc2n1	-8.794	8.79
CN1CCC(Oc2ccc(NC(=O)c3ccccc3Br)cc2)CC1	11.81	-26.07
Cc1nc(C)n(CC(=O)N2CCc3ncc(Cl)cc3C2)n1	16.08	-0.02938
c1ccc(NC[C@@H]2CCC[C@@H]3CN(c4ncccn4)C[C@@H]32)nc1	6.723	-
O=C(O)C(F)(F)F.O=C(O)C(F)(F)F.O=C(O)C(F)(F)F.[H][C@@]12CCN(Cc3cnn(C)c3)[C@]1([H])CC[C@@H](C(=O)Nc1cccnc1C)O2	-	-26.82
COc1cccc(Cn2c(C3CCNCC3)cc3cccnc32)c1.Cl	-	0.437
Cc1cc(N2CCC(c3ncc[nH]3)CC2)nc(N)n1	8.964	-34.12
Cc1cccc(CN2CCn3cc(CNC(=O)CC4CC4)nc3C2)n1	14.92	0.6704

The last 3 entries again:

COc1cccc(Cn2c(C3CCNCC3)cc3cccnc32)c1.Cl gave B: 0.437%.
Cc1cc(N2CCC(c3ncc[nH]3)CC2)nc(N)n1 gave A: 8.964%; B: -34.12%.
Cc1cccc(CN2CCn3cc(CNC(=O)CC4CC4)nc3C2)n1 gave A: 14.92%; B: 0.6704%.